The test has as its target Mei-P26 yeast two-hybrid construct (Drosophila) (UniProt M9PH32). Description: two-hybrid; LexA-based yeast two-hybrid, beta-galactosidase assay; pEG202 or pJG4.5 vectors.

Chains of the proteins cited; added tags and fusions are not shown.
UniProt M9PH32: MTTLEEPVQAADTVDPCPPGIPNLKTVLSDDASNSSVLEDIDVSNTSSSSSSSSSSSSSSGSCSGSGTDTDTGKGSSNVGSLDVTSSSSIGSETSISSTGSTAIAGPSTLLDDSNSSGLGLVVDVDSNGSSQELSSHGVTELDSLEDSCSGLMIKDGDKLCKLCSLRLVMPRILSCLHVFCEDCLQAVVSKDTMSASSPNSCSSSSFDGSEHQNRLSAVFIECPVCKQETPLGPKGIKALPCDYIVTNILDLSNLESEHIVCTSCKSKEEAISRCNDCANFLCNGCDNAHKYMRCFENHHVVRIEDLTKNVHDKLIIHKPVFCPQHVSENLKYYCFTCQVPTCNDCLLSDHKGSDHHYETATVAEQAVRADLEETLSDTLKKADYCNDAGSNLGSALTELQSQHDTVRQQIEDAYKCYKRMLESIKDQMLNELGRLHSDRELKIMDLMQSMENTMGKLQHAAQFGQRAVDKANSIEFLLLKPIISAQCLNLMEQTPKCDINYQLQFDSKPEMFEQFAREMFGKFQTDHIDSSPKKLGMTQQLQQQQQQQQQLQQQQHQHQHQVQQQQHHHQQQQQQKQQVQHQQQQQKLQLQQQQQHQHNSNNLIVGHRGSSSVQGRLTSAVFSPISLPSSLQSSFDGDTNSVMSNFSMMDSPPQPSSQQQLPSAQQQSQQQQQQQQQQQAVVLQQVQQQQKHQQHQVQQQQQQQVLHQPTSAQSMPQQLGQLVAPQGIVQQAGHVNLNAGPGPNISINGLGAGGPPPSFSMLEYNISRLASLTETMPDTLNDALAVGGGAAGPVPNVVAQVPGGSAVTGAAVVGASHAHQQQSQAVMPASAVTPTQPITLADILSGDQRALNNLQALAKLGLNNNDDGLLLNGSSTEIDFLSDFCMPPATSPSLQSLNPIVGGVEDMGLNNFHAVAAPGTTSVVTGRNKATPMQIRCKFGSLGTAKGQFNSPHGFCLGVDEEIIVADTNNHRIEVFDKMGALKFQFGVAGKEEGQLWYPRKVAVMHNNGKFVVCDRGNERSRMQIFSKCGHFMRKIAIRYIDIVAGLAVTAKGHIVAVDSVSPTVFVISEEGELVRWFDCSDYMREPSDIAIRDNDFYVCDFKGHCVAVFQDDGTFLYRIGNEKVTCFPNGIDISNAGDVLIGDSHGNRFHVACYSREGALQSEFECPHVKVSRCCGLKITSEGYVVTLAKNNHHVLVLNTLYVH

Results are given in words; binding and its absence hold for the method and conditions named. Some entries that bind do so weakly or less than the wild type.

B1: Bgcn yeast two-hybrid construct (protein, UniProt Q9W1I2 1-1215)
chain: MNHIIQDKYIPQQLLYFLAGRRCCQQFPCTFRTSEHEAFANNARSLGLRSQVVHVNGNSCVKVYKQACRHYLEEPKTLVLSSGATLNMFTLLSRKSLMGKEDLELYADLVSMKANASDLPSLHLPLPAIRPPNLRFWTEAQLNFLTAFLGHSLSDEILQSLYASRVIVYNAALCWDKSVFLPLVILDDCRNKKSNVKIMCIERQAILATYNSQRTANFFGEQLGETVGIQLPYFSAVSSSTFIIYSTAQYFLRSLTSQQFRNISHLVVNDVHLHDPYTDILLSEIRMALSSHQNLRVVLLSQMGNPKKFTDFFGEGLQLNMIKQPEVAPRVSYLNELHSCIALAGIHKGPDIYKEIPEAFRANNPRNEQMDKCLQAYGELGTDAALRPFLYAVNYDLAPVNYRHSLTGKTAVHFASELNKANHLRLLLFMGADPYIVDLFQQNAISLAAMNGNHECIDVLNSYSLHGYVVKSAKPDFVDYDLIIDIMYLLRTKPEYSPGEYSPGNILIILPTYYHIVKLNYMILSHCLTGSLQECSIFLLYDNMRNDYLQALVNASDETVKVVLATDIIESLCLKVPFKYQIDTACRLNNVYDTTSCSGDDRFEWVAKDALLRRELILQPNKGDVQCFRLISKEAYEELSETSQPSLQTMQLDKICLAVKLLSPNTIISEYLGITISPPPLINVHHAVQFLKKIDVLDDAEDVTWLGCRLMDIPVSCQLGRMLIFGILLRCLDPILTIVSSLSTADPLGIPFTEDIDNLWDRFTIYIQNSIKKERTYLSDNQFSDHFIFVRLYKEWQNRMHNRTPPLYLKDEYEFMLNGLMEQLTSIRSEIVSSLRAANLIHSRGKLSMNNLNQMSCNWHMVKAALTGGMYPNIYAVDTRKSSLKSAFSGNVSMHPNTVLRDFLEPLNISAQSFRTPWIVCNRQKSHIVYATLVVPLAVAMFSGHPRIRLSPICDSEMSLTDRNVNVFIDEWIWMVMSKATAEMVMRTRYYFFKMYHDLLKHCSELDMWRRDCEPVSQYTVLTDTLSKIFESEDGFVGFFKPPPITFLPTPQLPSLYLLSVNAHFSWAREVEENMLSKPHHFNSHFIERQFFVLYAGGDCEEFHSRNTPAFIESVLGKFVRPIDTPNRHIFVILYRKDPDMMLSISRAKFVNGVFMLQEYFRNNIPVFEILDACVSLNVQTPVFDGRLMSALIDKRVGNLIMELFAFRHHWIHKR
As to B1, the binding entry is on record as “binds”.
